PubChem BioAssay AID1259254, NCATS | 2017

Purpose: 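Finding genes that stop cells copying their DNA twice in one cycle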 (primary screen)
System: human HCT116 colorectal cancer cells
Reagents: single siRNA against human genes
Time to read-out: 3 days
Measurement: 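Imaged Hoechst DNA stain sorts each cell into a cycle phase by DNA amount; per plate, G2 fraction set to 0% for non-targeting and 100% for GMNN siRNA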
Scale: G2 robust z-score: higher = more G2 cells, more excess DNA replication
Rule for the call: 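Active siRNAs have a G2 robust z of 5 or more median absolute deviations over the median, which in these data means about 38% or higher of GMNN control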
The whole screen tested about 59,000 reagents; this is an unselected part. About 1,550 of all reagents (2.6%) were called active. 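G2 share is only a proxy for re-replication; each gene was hit by three separate siRNAs, and active genes were retested.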 The numbers tell different reagents against one gene apart. Not all columns of the deposit are shown. The record does not give: the amount of reagent.

For DNAJB9 (GeneID 4189) #1, what does the deposit list?
G2 robust z-score: 0.482; activity call: inactive

What did the screen give for DNAJB9 (GeneID 4189) #2?
G2 robust z-score: -0.16; activity call: inactive

With DNAJB9 (GeneID 4189) #3, how do the results read?
G2 robust z-score: 0.392; activity call: inactive

What is on record for CD82 (GeneID 3732) #1?
G2 robust z-score: -0.208; activity call: inactive

Which result is listed for CD82 (GeneID 3732) #2?
G2 robust z-score: -1.16; activity call: inactive

Which result is listed for CD82 (GeneID 3732) #3?
G2 robust z-score: -0.508; activity call: inactive

Ordered by “G2 robust z-score” (ascending): some entries from above
CD82 (GeneID 3732) #1: G2 robust z-score = -0.208; activity call = inactive
DNAJB9 (GeneID 4189) #3: G2 robust z-score = 0.392; activity call = inactive

The list goes on.
How did the screen score JCAD (GeneID 57608) #1?
G2 robust z-score: 0.185; activity call: inactive

How did the screen score JCAD (GeneID 57608) #2?
G2 robust z-score: -1.2; activity call: inactive

What is on record for JCAD (GeneID 57608) #3?
G2 robust z-score: 4.38; activity call: inactive

Which result is listed for ALDH3A2 (GeneID 224) #1?
G2 robust z-score: 8.82; activity call: active

With ALDH3A2 (GeneID 224) #2, what does the deposit list?
G2 robust z-score: -0.444; activity call: inactive

What did the screen give for ALDH3A2 (GeneID 224) #3?
G2 robust z-score: -0.0592; activity call: inactive

What is on record for MTERF3 (GeneID 51001) #1?
G2 robust z-score: -1.07; activity call: inactive

With MTERF3 (GeneID 51001) #2, what was measured?
G2 robust z-score: 0.0532; activity call: inactive

For MTERF3 (GeneID 51001) #3, what does the deposit list?
G2 robust z-score: -0.414; activity call: inactive

For TMLHE (GeneID 55217) #1, what was measured?
G2 robust z-score: 0.0505; activity call: inactive

For TMLHE (GeneID 55217) #2, how do the results read?
G2 robust z-score: 0.0158; activity call: inactive

With TMLHE (GeneID 55217) #3, what does the deposit list?
G2 robust z-score: -0.491; activity call: inactive
